Results are given in words; binding and its absence hold for the method and conditions named. In cells and extracts the contact can be indirect. Some binding calls cover weakened binding; strength is not graded here.
Target: Yin Yang-1 (YY1) (human (endogenous in HMC3)) (UniProt P25490)
Experiment: co-IP; HMC3 cell lysates incubated with antibodies for 12 h at 4 °C, then protein A/G beads for 2 h (Abcam ab206996 kit); Western blot; cells under normoxia or hypoxia

By UniProt entry, the sequences of proteins in these tests, tags left out.
UniProt P25490: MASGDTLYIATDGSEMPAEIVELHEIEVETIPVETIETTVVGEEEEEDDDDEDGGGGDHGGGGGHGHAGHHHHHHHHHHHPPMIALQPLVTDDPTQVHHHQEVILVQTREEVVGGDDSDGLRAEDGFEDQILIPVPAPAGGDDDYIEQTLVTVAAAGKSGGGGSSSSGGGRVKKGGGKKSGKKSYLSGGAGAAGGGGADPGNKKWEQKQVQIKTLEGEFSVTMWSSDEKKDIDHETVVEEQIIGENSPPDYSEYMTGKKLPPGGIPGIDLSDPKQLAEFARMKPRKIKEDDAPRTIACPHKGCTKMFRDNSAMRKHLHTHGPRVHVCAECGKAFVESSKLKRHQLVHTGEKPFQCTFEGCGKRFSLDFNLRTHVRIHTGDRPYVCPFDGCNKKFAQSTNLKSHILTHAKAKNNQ
UniProt Q09472: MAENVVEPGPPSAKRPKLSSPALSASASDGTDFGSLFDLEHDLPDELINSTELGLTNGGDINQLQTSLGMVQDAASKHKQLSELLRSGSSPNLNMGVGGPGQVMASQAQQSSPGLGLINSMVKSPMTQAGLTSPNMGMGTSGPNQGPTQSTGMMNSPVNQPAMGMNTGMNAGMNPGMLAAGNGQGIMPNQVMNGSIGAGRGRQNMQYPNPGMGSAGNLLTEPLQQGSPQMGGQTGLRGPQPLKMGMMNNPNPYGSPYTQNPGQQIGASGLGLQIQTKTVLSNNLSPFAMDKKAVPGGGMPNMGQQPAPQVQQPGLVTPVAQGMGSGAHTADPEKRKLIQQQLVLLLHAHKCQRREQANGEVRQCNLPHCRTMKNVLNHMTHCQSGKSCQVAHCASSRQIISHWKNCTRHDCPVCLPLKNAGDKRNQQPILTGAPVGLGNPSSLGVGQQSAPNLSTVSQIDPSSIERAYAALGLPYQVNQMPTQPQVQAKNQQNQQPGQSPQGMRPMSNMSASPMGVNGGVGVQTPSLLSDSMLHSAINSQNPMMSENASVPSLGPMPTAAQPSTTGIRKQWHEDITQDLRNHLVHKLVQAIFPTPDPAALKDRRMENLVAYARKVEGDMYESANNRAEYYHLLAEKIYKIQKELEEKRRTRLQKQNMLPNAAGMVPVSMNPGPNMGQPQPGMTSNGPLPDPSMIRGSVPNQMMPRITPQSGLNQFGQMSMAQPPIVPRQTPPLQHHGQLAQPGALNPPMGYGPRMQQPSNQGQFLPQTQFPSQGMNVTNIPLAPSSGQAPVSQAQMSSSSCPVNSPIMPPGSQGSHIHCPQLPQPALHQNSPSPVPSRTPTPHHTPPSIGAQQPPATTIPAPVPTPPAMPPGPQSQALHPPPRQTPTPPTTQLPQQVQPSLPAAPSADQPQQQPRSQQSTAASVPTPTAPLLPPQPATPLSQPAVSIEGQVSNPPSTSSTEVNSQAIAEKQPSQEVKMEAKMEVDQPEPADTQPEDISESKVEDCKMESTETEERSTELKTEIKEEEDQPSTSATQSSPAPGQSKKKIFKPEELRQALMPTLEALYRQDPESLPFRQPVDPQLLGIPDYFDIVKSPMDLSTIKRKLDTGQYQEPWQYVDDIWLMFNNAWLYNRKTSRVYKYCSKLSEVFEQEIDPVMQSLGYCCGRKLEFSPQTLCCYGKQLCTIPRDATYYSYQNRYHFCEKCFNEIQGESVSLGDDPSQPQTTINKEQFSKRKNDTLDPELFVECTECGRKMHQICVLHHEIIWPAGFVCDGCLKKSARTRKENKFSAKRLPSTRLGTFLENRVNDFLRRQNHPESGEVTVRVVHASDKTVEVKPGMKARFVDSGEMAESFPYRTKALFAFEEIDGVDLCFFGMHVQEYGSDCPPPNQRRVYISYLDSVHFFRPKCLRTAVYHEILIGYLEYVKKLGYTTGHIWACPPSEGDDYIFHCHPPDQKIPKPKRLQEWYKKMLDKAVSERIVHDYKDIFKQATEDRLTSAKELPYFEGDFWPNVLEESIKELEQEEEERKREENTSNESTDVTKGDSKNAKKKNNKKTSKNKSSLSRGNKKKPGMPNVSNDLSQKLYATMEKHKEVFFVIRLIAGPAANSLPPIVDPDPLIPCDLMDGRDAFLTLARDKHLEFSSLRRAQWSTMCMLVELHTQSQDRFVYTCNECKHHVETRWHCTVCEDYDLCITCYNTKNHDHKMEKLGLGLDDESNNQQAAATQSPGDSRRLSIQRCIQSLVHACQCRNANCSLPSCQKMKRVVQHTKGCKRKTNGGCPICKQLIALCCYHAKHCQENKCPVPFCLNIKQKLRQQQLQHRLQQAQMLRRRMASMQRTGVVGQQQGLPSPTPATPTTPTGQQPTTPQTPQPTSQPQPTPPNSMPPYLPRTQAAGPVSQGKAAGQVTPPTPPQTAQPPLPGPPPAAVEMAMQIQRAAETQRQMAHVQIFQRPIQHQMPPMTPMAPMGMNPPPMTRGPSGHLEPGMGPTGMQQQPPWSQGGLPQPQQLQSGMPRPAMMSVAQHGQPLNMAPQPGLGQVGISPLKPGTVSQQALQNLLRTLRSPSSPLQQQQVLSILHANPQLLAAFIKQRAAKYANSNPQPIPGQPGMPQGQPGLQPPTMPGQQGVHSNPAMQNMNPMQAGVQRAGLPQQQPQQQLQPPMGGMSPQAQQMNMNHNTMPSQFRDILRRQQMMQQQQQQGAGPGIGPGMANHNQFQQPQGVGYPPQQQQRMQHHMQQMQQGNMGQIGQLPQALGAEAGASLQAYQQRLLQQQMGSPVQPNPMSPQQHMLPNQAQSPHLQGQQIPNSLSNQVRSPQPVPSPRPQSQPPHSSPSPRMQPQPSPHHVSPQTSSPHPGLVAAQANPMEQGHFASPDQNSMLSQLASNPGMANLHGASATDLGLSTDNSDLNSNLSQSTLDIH

- binding: binds
Substance: p300 (from UniProt Q09472 1-2414) (enzyme)
